Binding data for 2 molecules are collected here from PMC3854564.

Amino acid sequences for entries named in this document (tags omitted).
UniProt Q08857: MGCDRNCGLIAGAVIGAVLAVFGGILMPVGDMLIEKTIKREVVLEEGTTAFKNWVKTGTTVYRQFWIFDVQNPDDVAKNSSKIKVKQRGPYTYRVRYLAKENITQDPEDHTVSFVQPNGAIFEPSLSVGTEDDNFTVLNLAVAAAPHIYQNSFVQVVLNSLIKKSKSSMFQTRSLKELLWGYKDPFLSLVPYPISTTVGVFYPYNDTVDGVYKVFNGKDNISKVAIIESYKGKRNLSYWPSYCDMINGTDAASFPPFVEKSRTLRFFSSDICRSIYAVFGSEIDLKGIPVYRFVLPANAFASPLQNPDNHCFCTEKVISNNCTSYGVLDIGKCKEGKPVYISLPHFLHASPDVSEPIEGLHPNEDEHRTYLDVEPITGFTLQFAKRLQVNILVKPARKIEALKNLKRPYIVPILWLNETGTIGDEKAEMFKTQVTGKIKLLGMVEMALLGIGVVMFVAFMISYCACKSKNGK
UniProt Q62035: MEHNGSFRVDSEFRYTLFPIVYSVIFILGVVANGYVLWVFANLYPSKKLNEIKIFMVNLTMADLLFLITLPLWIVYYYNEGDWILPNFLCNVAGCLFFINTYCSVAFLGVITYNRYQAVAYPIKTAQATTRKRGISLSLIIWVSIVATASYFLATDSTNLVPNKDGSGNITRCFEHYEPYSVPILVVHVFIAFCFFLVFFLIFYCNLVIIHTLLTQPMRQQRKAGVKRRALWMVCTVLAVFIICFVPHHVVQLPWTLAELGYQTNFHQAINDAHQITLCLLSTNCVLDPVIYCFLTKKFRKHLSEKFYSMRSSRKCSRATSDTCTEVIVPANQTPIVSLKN

Holding throughout (experiment): co-IP; bone marrow-derived macrophages resting, treated with PAF (10^-7 M) or with apoptotic thymocytes (10 per macrophage) for 20 min; lysed on ice in HEPES buffer with 1 mM CaCl2, 1 mM MgCl2, 1% Triton X-100; lysates incubated overnight at 4°C with rabbit anti-PAFR or mouse IgA anti-CD36, protein A- or protein G-Sepharose; immunoblot for PAFR, CD36 or flotillin-1
A general note: In western blotting, separated proteins are transferred to a membrane and probed.

Experiment [1] concerns the target CD36 (mouse (endogenous in bone marrow-derived macrophages)) (UniProt Q08857).
Experiment [2] has the same target. This is another data set of the same source.
For experiment [3], the target named is platelet-activating factor receptor (mouse (endogenous in bone marrow-derived macrophages)) (UniProt Q62035).

Read-outs that look alike come from different tables or passages of the source. These are yes or no findings as the source states them, for the method shown. Binding seen in cells or lysates may run through a third protein. Some results given as binding are weak or reduced against the parent protein; the word gives no strength.

As for “platelet-activating factor receptor (from UniProt Q62035 1-341)”, the binding result in experiment [1] is on record as “binds”.

B1: flotillin-1 (protein, UniProt O08917 1-428)
chain: MFFTCGPNEAMVVSGFCRSPPVMVAGGRVFVLPCIQQIQRISLNTLTLNVKSEKVYTRHGVPISVTGIAQVKIQGQNKEMLAAACQMFLGKTEAEIAHIALETLEGHQRAIMAHMTVEEIYKDRQKFSEQVFKVASSDLVNMGISVVSYTLKDIHDDQDYLHSLGKARTAQVQKDARIGEAEAKRDAGIREAKAKQEKVSAQCLSEIEMAKAQRDYELKKATYDIEVNTRRAQADLAYQLQVAKTKQQIEEQRVQVQVVERAQQVAVQEQEIARREKELEARVRKPAEAERYRLERLAEAEKAQLIMQAEAEAESVRMRGEAEAFAIGARARAEAEQMAKKAEAFQMYQEAAQLDMLLEKLPQVAEEISGPLTSANKITLVSSGSGTMGAAKVTGEVLDILSRLPESVERLTGVSISQVNHNKPLRTA
Consider B1, for which the binding entry in experiment [2] and in experiment [3] was “binds” in each case.
